From PubChem BioAssay AID493014 (National Center for Advancing Translational Sciences (NCATS), 2011)
The other results are listed elsewhere or left out. These are further read-outs of the screen, such as a control signal, another cell line or another target. No call is given for them. The list favours compounds with an active or inconclusive main result. Potencies come from curve fits of mixed quality, noted in brackets.

Assay: qHTS Assay to Find Inhibitors of Chronic Active B-Cell Receptor Signaling
Settings: ABC-DLBCL IkBa-CBG/CBR reporter, luminescence ratio (green luciferase fused to IkBa over red control in TMD8 lymphoma cells), 4 h
Outline: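 TMD8 human ABC-DLBCL cells with doxycycline-inducible IκBα–green luciferase fusion and unfused red luciferase, in 0.5% FBS medium; compounds up to 46 uM, 4 h at 37C. Green/red luminescence ratio, filter-overlap corrected, fitted to concentration-response curves.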

[1] = measured here: CBR red luminescence, cell number
[2] = measured here: IkBa-CBG green luminescence

## COc1cccc(-c2c(C(=O)N/N=C/c3sccc3C)nnn2-c2nonc2N)c1
[1]
  AC50: 12.6 µM [falling, partial curve, poor fit]

## C=CC[C@@H](CC(=O)N[C@@H](CO)Cc1ccccc1)C(=O)N[C@H](COC(=O)[C@@H](CC=C)CC(=O)OC(C)(C)C)Cc1c[nH]c2ccccc12
[1]
  AC50: 29.1 µM [falling, single point]

## O=C(NCCc1cccc(F)c1)C1CCCN(c2nc3ccccc3s2)C1 (stereo unspecified)
[1]
  AC50: 12.6 µM [falling, partial curve, poor fit]

## COc1ccc(C(=O)C(OC(=O)c2ccccc2Cl)c2ccccc2)cc1 (stereo unspecified)
[1]
  AC50: 1.03 µM [falling, partial curve, poor fit]

## CCCCn1c(N)c(N(Cc2ccccc2OC)C(=O)c2cc(CC)c(C)s2)c(=O)[nH]c1=O
[1]
  AC50: 32.6 µM [falling, single point]

## O=C(N/N=C/c1sc(=O)[nH]c1-[n+]1ccccc1)c1ccccc1[O-]
[1]
  AC50: 11.2 µM [falling, partial curve, poor fit]

## CCSc1nnc(NC(=O)C2CCCCC2)s1
[1]
  AC50: 7.94 µM [falling, partial curve, poor fit]

## O=CN1CCCN(Cc2nc(Cc3ccccc3F)no2)CC1
[1]
  AC50: 7.94 µM [rising, partial curve]

## Cn1c(CCN2CCN(c3ccccn3)CC2)nc2cc(NS(=O)(=O)c3ccc(Cl)cc3)ccc21
[1]
  AC50: 8.91 µM [falling, partial curve]

## O=[N+]([O-])c1cc(C(F)(F)F)ccc1Sc1nccn1Cc1ccccc1
[1]
  AC50: 35.5 µM [falling, single point]
[2]
  AC50: 17.8 µM [rising, partial curve, poor fit]

## COC(=O)C(Cc1ccccc1)NC(=O)c1ccc(C)cc1 (stereo unspecified)
[1]
  AC50: 0.708 µM [rising, full curve, poor fit]

## Cc1cccc(-n2nc(C(=O)Nc3ccccc3)n3c(=O)cc(-c4ccccc4)nc23)c1
[1]
  AC50: 23.1 µM [falling, single point]

## CC(C)(C)NC(=O)COC(=O)c1ccc(NC(=O)CC#N)cc1
[1]
  AC50: 35.5 µM [falling, single point]

## Cc1ccc(NC(=O)CSc2nn3c(=O)c(C)nnc3s2)cc1Cl
[1]
  AC50: 3.98 µM [falling, full curve, poor fit]

## CCN1C(=O)N/C(=C/c2ccc(Sc3ccc(C)cc3)o2)C1=O
[1]
  AC50: 1.78 µM [falling, partial curve]

## COc1cccc(NC(=O)CSc2nc3ccccc3c3nc4ccccc4n23)c1
[1]
  AC50: 0.0731 µM [falling, full curve]

## Cc1ccc2[nH]c(=O)c(CN(CCCN(C)C)C(=S)NCCc3ccccc3)cc2c1
[1]
  AC50: 6.31 µM [falling, single point]

## Cc1ccc(-c2nnc(-c3ccc4c(c3)OCO4)o2)cc1
[1]
  AC50: 2.24 µM [rising, partial curve, poor fit]

## CC(C)C(=O)Nc1ccc2c(c1)nc1n2CCSC1
[1]
  AC50: 16.4 µM [rising, partial curve]

## COc1cccc(C(=O)/C=C/c2ccc(OCC#N)c(OC)c2)c1
[1]
  AC50: 4.61 µM [falling, full curve]

## S=C(NCCc1ccccc1)Nc1ccc(Br)cn1
[1]
  AC50: 8.91 µM [rising, partial curve, poor fit]

## Cc1ccc(C2=NNC(c3cccc(F)c3)S2)cc1 (stereo unspecified)
[1]
  AC50: 5.62 µM [falling, full curve, poor fit]

## COc1ccc2nc3cc(Cl)ccc3c(Nc3cc(C(C)C)c(O)cc3C)c2c1
[1]
  AC50: 20 µM [falling, single point]
[2]
  AC50: 15.8 µM [rising, partial curve, poor fit]

## C#CCOCCOCCOCCNc1nc(N2CCOCC2)nc(N2CCN(C(=O)CCCCCCCCCCNC(=O)[C@H]([C@@H](C)CC)n3cc(CCCCN=C(N)N)nn3)CC2)n1
[1]
  AC50: 7.31 µM [rising, partial curve, poor fit]

## Cc1ccc(NC(=O)c2cc(-c3cccs3)on2)cc1C
[1]
  AC50: 10 µM [falling, partial curve, poor fit]

## CCN(CC)C1CCN(C(=O)c2cc(COc3ccc(F)cc3Cl)on2)C1 (stereo unspecified)
[1]
  AC50: 12.6 µM [rising, partial curve, poor fit]

## COc1ccc(C(=O)NNC(=S)NC(=O)c2ccccc2)cc1
[1]
  AC50: 20 µM [rising, partial curve, poor fit]

## Cc1ccc(-c2nc3ccccc3[nH]2)cc1N
[1]
  AC50: 14.6 µM [falling, partial curve, poor fit]

## O=C(Nc1ccc(F)cc1)c1cccc(NC(=O)C2C3CC4OC(=O)C2C4C3)c1 (stereo unspecified)
[1]
  AC50: 13 µM [falling, partial curve]

## Cc1cc(N)n(-c2ccc3ccccc3c2)n1
[1]
  AC50: 0.562 µM [rising, full curve, poor fit]

## CSc1ccc(-c2nc(CSCC(=O)NCCCN3CCCC3=O)c(C)o2)cc1
[1]
  AC50: 6.31 µM [falling, single point]

## CCN(C[C@H]1N[C@@](Cc2ccccc2)(C(=O)OC)[C@H]2C(=O)N(Cc3ccccc3)C(=O)[C@@H]12)C(=O)Nc1ccc(F)cc1
[1]
  AC50: 29.1 µM [falling, single point]

## O=c1c2ccccc2nnn1Cc1ccccc1
[1]
  AC50: 35.5 µM [falling, partial curve, poor fit]

## CC(C)=CC(=O)Nc1nnc(C(C)C)s1
[1]
  AC50: 6.31 µM [rising, single point]

## CC(C)(C)c1ccc(C(=O)N/N=C/c2ccccn2)cc1
[1]
  AC50: 22.4 µM [rising, single point]

## O=C(CS(=O)(=O)c1ccccc1)Nc1nnc(-c2cccs2)o1
[1]
  AC50: 23.1 µM [falling, single point]

## Cc1cnc(SCc2ccc(Cl)cc2Cl)[nH]c1=O
[1]
  AC50: 3.16 µM [rising, single point]

## Cc1ccc2nc(N3CCN(C(=O)c4ccco4)CC3)c3nncn3c2c1
[1]
  AC50: 0.501 µM [rising, full curve, poor fit]

## COCCN(C(=O)Cc1cccs1)C(C(=O)NCc1ccc(OC)cc1)c1ccc(C)cc1 (stereo unspecified)
[1]
  AC50: 32.6 µM [falling, single point]

## Cc1ccc(-n2nc3ccc(NC(=O)/C=C/c4ccco4)cc3n2)cc1
[1]
  AC50: 23.1 µM [rising, partial curve, poor fit]

## CC(CC(=O)Nc1cc(C(F)(F)F)ccc1Cl)c1ccccc1 (stereo unspecified)
[1]
  AC50: 6.31 µM [rising, full curve]

## O=C(CC(C(=O)N1CCc2ccccc21)n1ccnc1)NCc1cccnc1 (stereo unspecified)
[1]
  AC50: 29.1 µM [rising, single point]

## NC(=O)CC1SC(N)=NC1=O (stereo unspecified)
[1]
  AC50: 4.11 µM [falling, partial curve, poor fit]

## COc1ccc(COCC(O)CN2CCC(C(N)=O)CC2)cc1OC (stereo unspecified)
[1]
  AC50: 5.62 µM [rising, single point]

## Cc1cc(-c2nc(C)c(C(=O)NN)s2)no1
[1]
  AC50: 0.316 µM [falling, full curve, poor fit]

## c1ccc2[nH]c(NCCCN3CCOCC3)nc2c1
[1]
  AC50: 5.01 µM [rising, single point]

## Cc1ccsc1C(=O)OCC(=O)Nc1nnc(-c2ccccc2)o1
[1]
  AC50: 18.4 µM [falling, single point]

## CN(C)C(=O)N1CCNCC1
[1]
  AC50: 35.5 µM [rising, partial curve, poor fit]

## O=C(N=Nc1c(O)n(C2OC(=O)c3ccccc32)c2ccccc12)c1ccc(O)cc1 (stereo unspecified)
[1]
  AC50: 1.26 µM [falling, full curve, poor fit]

## O=C(c1ccc2ccccc2c1)N1CCc2ccccc21
[1]
  AC50: 1 µM [falling, partial curve, poor fit]

## Cc1ccc(S(=O)(=O)N2CCCCC2)cc1NC(=S)NC(=O)c1ccco1
[1]
  AC50: 3.98 µM [falling, single point]

## C/C(=N\N1C(=O)c2ccccc2NC1c1ccco1)c1ccccc1O (stereo unspecified)
[1]
  AC50: 35.5 µM [falling, single point]
[2]
  AC50: 35.5 µM [falling, partial curve, poor fit]

## COc1c(C(=O)NNC(=O)c2ccccc2Cl)csc1Br
[1]
  AC50: 22.4 µM [falling, partial curve, poor fit]

## Cc1sc2ncn(C(C)C(=O)OC3CCCCC3)c(=O)c2c1C (stereo unspecified)
[1]
  AC50: 0.00461 µM [falling, full curve, poor fit]

## COc1ccc(/C=C2\Oc3ccccc3C2=O)cc1
[1]
  AC50: 13 µM [falling, single point]

## COCCNC(=O)C(c1ccc(F)cc1)N(C(=O)CCC(=O)Nc1nccs1)c1cccc(C)c1 (stereo unspecified)
[1]
  AC50: 22.4 µM [falling, single point]

## Oc1[nH]c2ccccc2c1C=Nc1ccccc1
[1]
  AC50: 10 µM [falling, partial curve]

## COc1ccc(C(=O)N2CCC(O)(c3ccc(F)cc3)CC2)cc1OC
[1]
  AC50: 3.26 µM [falling, single point]

## O=C(NCc1ccccc1)c1cc(-c2ccco2)on1
[1]
  AC50: 16.4 µM [falling, partial curve, poor fit]

## O=C(c1ccccc1Sc1ccc([N+](=O)[O-])cc1)N1CCCCC1
[1]
  AC50: 13 µM [rising, partial curve]

## Cc1ccc(NC(=O)c2cc(-c3ccco3)on2)cc1C
[1]
  AC50: 7.08 µM [falling, full curve]

## CC(OC(=O)c1ccco1)C(=O)Nc1nc(-c2ccccc2)cs1 (stereo unspecified)
[1]
  AC50: 29.1 µM [falling, single point]

## COc1ccc(N2C(=O)CN=C2Nc2nc(C)cc(C)n2)cc1
[1]
  AC50: 3.66 µM [falling, partial curve, poor fit]
